Measured values taken from publication PMC7762499.
These are yes or no findings as the source states them, for the method shown. In cells and extracts the contact can be indirect. Some results given as binding are weak or reduced against the parent protein; the word gives no strength.

Sequences of proteins named here, by UniProt entry; tags and fusion partners are left off.
UniProt Q8VBV4: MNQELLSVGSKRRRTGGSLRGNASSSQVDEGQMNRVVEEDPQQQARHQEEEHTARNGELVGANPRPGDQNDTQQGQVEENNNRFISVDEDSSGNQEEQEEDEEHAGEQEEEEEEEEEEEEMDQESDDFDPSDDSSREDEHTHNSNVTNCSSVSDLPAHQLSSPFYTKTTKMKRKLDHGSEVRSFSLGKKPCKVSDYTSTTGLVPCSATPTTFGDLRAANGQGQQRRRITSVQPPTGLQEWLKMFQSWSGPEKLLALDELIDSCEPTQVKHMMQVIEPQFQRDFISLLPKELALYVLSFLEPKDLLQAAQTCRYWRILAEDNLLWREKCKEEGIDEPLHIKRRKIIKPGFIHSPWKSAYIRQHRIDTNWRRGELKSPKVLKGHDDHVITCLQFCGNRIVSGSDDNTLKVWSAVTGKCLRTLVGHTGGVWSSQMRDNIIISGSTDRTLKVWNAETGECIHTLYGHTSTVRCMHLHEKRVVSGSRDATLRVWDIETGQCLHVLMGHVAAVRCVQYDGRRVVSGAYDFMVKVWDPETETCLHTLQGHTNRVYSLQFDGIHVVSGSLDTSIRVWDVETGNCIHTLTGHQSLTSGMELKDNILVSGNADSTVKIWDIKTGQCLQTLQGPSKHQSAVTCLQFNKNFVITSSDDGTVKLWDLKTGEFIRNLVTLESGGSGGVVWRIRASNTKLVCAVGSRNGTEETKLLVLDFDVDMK
UniProt P01108: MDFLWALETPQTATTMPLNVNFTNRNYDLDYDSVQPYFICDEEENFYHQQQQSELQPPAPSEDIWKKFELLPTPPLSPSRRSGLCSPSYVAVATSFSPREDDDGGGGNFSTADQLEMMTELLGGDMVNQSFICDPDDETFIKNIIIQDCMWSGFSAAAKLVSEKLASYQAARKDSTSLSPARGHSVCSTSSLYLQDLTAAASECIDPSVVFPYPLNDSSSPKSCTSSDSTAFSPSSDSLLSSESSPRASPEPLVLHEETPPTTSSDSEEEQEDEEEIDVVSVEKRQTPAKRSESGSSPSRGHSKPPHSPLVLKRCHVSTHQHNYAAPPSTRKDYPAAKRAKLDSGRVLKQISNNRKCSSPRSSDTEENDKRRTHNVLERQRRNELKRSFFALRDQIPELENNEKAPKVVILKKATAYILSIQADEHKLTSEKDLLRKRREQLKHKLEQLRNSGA

Assays:
[1] = molecular target: F-box and WD repeat domain-containing 7 (FBXW7) (mouse (endogenous in BMDMs)) (UniProt Q8VBV4); assay: co-IP; endogenous proteins; BMDMs stimulated with LLC conditioned medium for the indicated times and treated with MG132; lysates in IP Lysis Buffer incubated overnight at 4 C with specific antibodies on protein G magnetic beads, IgG as control; immunoblot; done in both directions
[2] = molecular target: c-Myc (mouse (endogenous in BMDMs)) (UniProt P01108); assay: as above

Row | binding [1] | binding [2] | Substance
1 | binds |  | c-Myc (from UniProt P01108 1-454)
2 |  | binds | F-box and WD repeat domain-containing 7 (FBXW7) (from UniProt Q8VBV4 1-710)
